Source: ChEMBL document CHEMBL3988442, “University of Dundee, Small-Polar-MMV Screening Library” (2021).

The chains behind the UniProt entries cited, without tags or fusion partners. Residues count along the entry.
UniProt Q8IDJ8, 1-583: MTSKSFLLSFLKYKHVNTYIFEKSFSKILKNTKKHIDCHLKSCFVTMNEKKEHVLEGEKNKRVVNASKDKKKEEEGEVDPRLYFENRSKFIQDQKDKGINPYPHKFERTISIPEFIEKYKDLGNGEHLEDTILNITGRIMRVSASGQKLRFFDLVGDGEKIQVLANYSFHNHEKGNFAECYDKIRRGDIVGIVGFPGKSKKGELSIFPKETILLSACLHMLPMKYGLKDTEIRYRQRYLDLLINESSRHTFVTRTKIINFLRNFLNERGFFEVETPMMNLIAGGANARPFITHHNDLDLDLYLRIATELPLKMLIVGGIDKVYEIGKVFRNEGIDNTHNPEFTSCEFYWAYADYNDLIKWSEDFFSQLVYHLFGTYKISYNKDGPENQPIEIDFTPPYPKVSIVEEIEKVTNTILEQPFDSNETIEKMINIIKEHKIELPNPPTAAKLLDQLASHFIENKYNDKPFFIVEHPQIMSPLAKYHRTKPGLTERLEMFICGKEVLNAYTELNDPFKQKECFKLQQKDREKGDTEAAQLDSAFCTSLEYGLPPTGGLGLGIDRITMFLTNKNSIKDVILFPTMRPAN
UniProt P9WNZ1, whole entry: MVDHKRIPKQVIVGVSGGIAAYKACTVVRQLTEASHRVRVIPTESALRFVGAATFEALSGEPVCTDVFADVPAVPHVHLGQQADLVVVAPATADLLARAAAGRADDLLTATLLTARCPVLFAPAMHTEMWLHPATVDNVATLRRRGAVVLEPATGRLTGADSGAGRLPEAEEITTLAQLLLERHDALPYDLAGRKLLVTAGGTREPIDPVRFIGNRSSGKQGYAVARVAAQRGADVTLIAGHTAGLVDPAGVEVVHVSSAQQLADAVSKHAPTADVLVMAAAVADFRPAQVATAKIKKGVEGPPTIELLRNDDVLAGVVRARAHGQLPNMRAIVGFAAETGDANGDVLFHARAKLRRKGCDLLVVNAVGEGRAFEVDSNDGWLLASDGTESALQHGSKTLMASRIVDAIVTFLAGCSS

A: 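Enzyme assay of the cytosolic lysyl-tRNA synthetase in 384-well plates, read by luminescence. Target: Lysine-tRNA ligase, Plasmodium falciparum 3D7 (UniProt Q8IDJ8). Compounds at 30 µM. Direction is inferred from only a few compounds that gave an IC50; most scored high, so higher reads as stronger inhibition. About 69,000 compounds were tested under these conditions; 0.071% (about 49) showed 50% or more at least once.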
B: 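Assay of Toxoplasma gondii numbers, read through their beta-galactosidase reporter with a colour substrate. Tested at 10 µM. The record gives no direction; the compounds picked for IC50 retests had high values, so higher reads as fewer parasites. Size under these conditions: about 67,000 compounds, about 260 of them at 50% or above in at least one test.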
C: 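Coenzyme A biosynthesis protein CoaBC, Mycobacterium tuberculosis (UniProt P9WNZ1). Enzyme assay of CoaBC with a phosphate dye (Biomol Green) read at 650 nm. Tested at 30 µM. Direction is inferred from only a few compounds that gave an IC50; most scored high, so higher reads as stronger inhibition. Most strong results did not repeat in a second test. Of about 67,000 compounds tested this way, about 40 (0.06%) reached 50% or more in at least one test.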

Values are the deposited “Percent Effect”, in %.
The record does not define 0% and 100%; most values in the screen are far below 50% and negative numbers occur (in some assays of this library far below -100).
This is an unselected part of the compounds tested.
A dash means the value is not listed here; it may have been measured.

CC(Cc1cn(CCc2nnn[nH]2)nn1)c1ccccc1 (centres undefined) gave A: 3.446%; B: 2.834%; C: 4.444%.
Cc1ccc(C(=O)N2CC[C@]3(C[C@@H](OCc4ccccn4)CO3)C2)nc1.O=C(O)C(F)(F)F.O=C(O)C(F)(F)F gave B: -16.99%.
CCn1nc(C)c(-c2cncn2Cc2ccccc2CN(C)C)c1C.Cl gave B: -5.423%.
CCC(C)NC(=O)c1ccc(CNC(=O)CC(C)(C)C)cc1 (centres undefined) gave A: -0.1072%; B: 12.04%; C: 8.894%.
[H][C@@]12CS(=O)(=O)C[C@]1([H])N(Cc1nc(C)n[nH]1)CCN2C(=O)C1CCC1 gave B: -13.65%.
Cc1cccc(=O)n1CCC(=O)N1CCC2(CC1)OCCCC2O (centres undefined) gave A: 7.346%; B: -11.74%; C: 1.434%.
O=C1N(c2ccccc2)C[C@H]2CN(C3CCC3)CCN12 gave A: 6.152%; C: 15.58%.
Cc1ccc(S(=O)(=O)n2ccc(C(=O)NCC(F)(F)F)c2)cc1 gave A: 1.012%; B: -2.256%; C: 14.43%.
O=C(O)C(F)(F)F.[H][C@]12C[C@@H](C(=O)N(C)C)CO[C@@]1([H])CCN(c1ncc(F)cn1)C2 gave B: 3.565%.
Cc1cc(C)n(CC2CCCN2CC(=O)N(C)Cc2cnn(C)c2)n1 (centres undefined) gave A: 2.986%; B: 8.673%; C: 5.575%.
CN(C)CC1CN(C(=O)CCc2ccccc2)Cc2nccn2C1 (centres undefined) gave A: -1.503%; C: 4.362%.
c1csc(N2CCCN(c3nccn4cnnc34)CC2)n1 gave A: -0.8655%; B: -2.143%; C: 0.9709%.
CCc1ccc(CN2C[C@@H](C)C3(CCN(CC(=O)N(C)C)C3=O)C2)o1.O=C(O)C(F)(F)F (some centres undefined) gave B: 3.587%.
O=C(c1cccc(C2CCNC2)c1)N1CCC(c2ncc[nH]2)CC1 (centres undefined) gave A: 7.331%; B: -23.95%; C: 5.696%.
COc1cccc(CN2CCCC2Cn2nc(C)nc2C)c1 (centres undefined) gave A: -0.3752%; B: 15.99%; C: -3.753%.
Cc1cc(NC(=O)NCC(C)N2CCc3ccccc32)no1 (centres undefined) gave A: 7.73%; B: 0.4449%; C: 0.7905%.
OCCN1CCN(Cc2cnc3c(-c4ccccc4)cnn3c2)CC1 gave A: -2.616%; B: 2.085%; C: -20.26%.
Cc1ccc(CN2CCN(c3ccc(F)cn3)CC2=O)cc1C gave A: 9.524%; B: -34.43%; C: 2.381%.
Cc1cncc(CN2CC[C@@](O)(CNC(=O)c3c[nH]cn3)[C@H](O)C2)c1 gave A: 1.304%; B: 15.14%; C: -0.2283%.
Cc1ccoc1C(=O)N1CC[C@H]2[C@@H]1CCC(=O)N2c1cccnc1 gave A: 2.139%; C: 3.09%.
Cc1cccc(N2CCN(C(=O)CN3CCC(C(N)=O)CC3)CC2)c1 gave A: 2.478%; B: 16.56%; C: 3.758%.
CN(CCc1ccncc1)Cc1nccn1Cc1ccccc1 gave A: -4.87%; B: 4.818%; C: 2.386%.
Cc1ccccc1-c1cncc(C2CCN(Cc3ccccn3)CC2)n1 gave A: 2.017%; B: -22.18%; C: 8.333%.
Fc1cccc(Cl)c1CN1CCn2c(nnc2C2CC2)C1 gave A: 4.721%; B: 0.6602%; C: 1.22%.
CCOc1ccccc1C(=O)N(C)C(C)c1ccc(S(C)(=O)=O)cc1 (centres undefined) gave A: 4.796%; B: -11.61%; C: 4.303%.
Cc1nc(CN2CCOCC2c2[nH]ncc2C)cs1 (centres undefined) gave A: -0.7892%; B: -1.973%; C: 0.4843%.
CCc1ncc2c(n1)CN(C(C(N)=O)c1ccccc1)CC2 (centres undefined) gave A: 6.747%; B: 7.334%; C: 5.95%.
Cc1nc(CN2CCN3C[C@H](Oc4cncnc4)C[C@H]3C2)cs1 gave A: 3.389%; C: 1.733%.
Cc1nc(CN2CCN(C)C(=O)C23CCN(C(C)C)CC3)cs1.O=C(O)C(F)(F)F gave B: -0.6492%.
COCC1CC2(CCN(C(=O)c3cccc(C)c3)CC2)CO1 (centres undefined) gave A: 0.4042%; B: -3.88%; C: 1.901%.
Cc1nc(NCCc2ccc(Cl)cc2)cc(C(=O)N2CCOCC2)n1 gave A: 6.829%; B: 6.261%; C: 0.4545%.
COc1cccc(-c2nnn(C3CCN(CC(F)(F)F)C3=O)n2)c1 (centres undefined) gave A: 5.193%; B: -3.262%; C: 2.408%.
CCn1nc(CC(C)C)cc1C(=O)N1CCC2(CC1)[C@H](O)C[C@@H]2O gave A: 7.172%; B: -8.718%; C: -0.2016%.
O=C(NCCn1nc(C2CCNC2)c2cccnc21)c1ccccc1 (centres undefined) gave A: 9.4%; C: -2.941%.

Once more, the final 3:

SMILES,A,B,C
COc1cccc(-c2nnn(C3CCN(CC(F)(F)F)C3=O)n2)c1 (centres undefined),5.193%,-3.262%,2.408%
CCn1nc(CC(C)C)cc1C(=O)N1CCC2(CC1)[C@H](O)C[C@@H]2O,7.172%,-8.718%,-0.2016%
O=C(NCCn1nc(C2CCNC2)c2cccnc21)c1ccccc1 (centres undefined),9.4%,-,-2.941%